The list shows a part of the results. These are further read-outs of the screen, such as a control signal, another cell line or another target. No call is given for them. The list favours compounds with an active or inconclusive main result. Words in brackets tell the shape of the fitted curve; partial curves, single points and poor fits give uncertain potencies.
Experiment: qHTS Assay for Lipid Storage Modulators in Drosophila S3 Cells;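 for cell number change: cells counted by Cell Tracker Red CMTPX staining in the red channel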
Settings: BODIPY lipid droplet fluorescence, 18-24 h; for cell number change: measured here: cell count max response, cells fed with added oleic acid
Method in brief: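 Laser-scanning cytometry quantifies lipid droplet accumulation (500–530 nm total intensity; droplet/cell object ratio) in oleic acid-fed (400 uM added) Drosophila S3 cells treated with a concentration series. 20 uM Triacsin C defined 100% inhibition.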

[1] = measured here: lipid fluorescence (Fed channel) AC50, cells fed with added oleic acid
[2] = measured here: cell number channel AC50, cells fed with added oleic acid

Structure (SMILES)	cell number change	AC50 [1]	AC50 [2]
Cc1ccc2[nH]c(=O)c(CN(C(=O)c3cccs3)c3ccccc3)cc2c1	7.68%	2.59 µM [rising, single point]	–
COC(=O)c1cn(C)c2ccc(S(=O)(=O)N3CCOCC3)cc2c1=O	12.4%	–	–
CCCOc1ccc(C(=O)CCC(=O)OCC(=O)Nc2cccc(S(N)(=O)=O)c2)cc1	12%	–	–
Cc1ccc(-c2c(C(=O)NCc3ccc(F)cc3)oc(=O)c3ccccc23)cc1	25.9%	–	–
Cc1ccc(C(=O)O/N=C(\N)c2cccnc2)cc1[N+](=O)[O-]	26.6%	4.61 µM [rising, partial curve, poor fit]	1.46 µM [falling, full curve]
CC(C)c1ccc(Nc2cnn(C34CC5CC(CC(CC(=O)O)(C5)C3)C4)c(=O)c2Cl)cc1	-33.4%	29.1 µM [falling, single point]	3.66 µM [falling, full curve]
Cc1cc(C(=O)N(C)Cc2c(F)cccc2Cl)c2ccccc2n1	–	4.11 µM [falling, partial curve]	–
O=C(COc1ncnc2scc(-c3ccccc3)c12)NCCN1C(=O)CSC1=O	–	5.17 µM [falling, single point]	–
CCOC(=O)c1ccc(CNC(=O)Cn2nnc(-c3ccc(C)cc3)n2)o1	-10.7%	1.64 µM [falling, partial curve]	–
Cc1cc(NC(=O)CCC(=O)N(CC(=O)NC2CCCC2)Cc2ccccc2Cl)no1	-3.53%	18.4 µM [rising, single point]	–
CS(=O)(=O)Nc1ccc(C(=O)NCCSCc2ccco2)cc1	–	0.0058 µM [falling, full curve, poor fit]	–
CCSCc1nnc(SCC(=O)c2ccc(OC)cc2)n1C	-0.906%	5.8 µM [falling, single point]	–
CCN(c1ccccc1)S(=O)(=O)c1ccc2c(c1)CCCN2C(C)=O	3.23%	0.651 µM [falling, single point]	–
CC(=O)c1ccccc1OC(=O)COc1ccc(Cl)cc1C	-8.51%	–	–
O=C(O)CCC(NC(=O)c1cncc(O)c1)C(=O)O (stereo not drawn)	-51.3%	5.8 µM [falling, full curve]	2.06 µM [falling, full curve]
O=c1[nH]cnc2sc3c(c12)CCCCC3	-38.4%	–	1.84 µM [falling, full curve]
COc1ccccc1N1CCN(C(=O)C(=O)c2cn(CC(=O)N3CCCCCC3)c3ccccc23)CC1	–	14.6 µM [falling, partial curve]	–
O=C(COC(=O)c1ccc(Br)o1)NCc1ccc(F)cc1	5%	0.0326 µM [rising, full curve, poor fit]	–
COc1ccc(C(=O)C2CCCN(Cc3cccn3-c3nccs3)C2)cc1OC (stereo not drawn)	–	8.2 µM [rising, partial curve]	–
Cc1cccc(NC(=O)c2nc[nH]c2C(=O)N[C@H](C)c2ccccc2)c1	-45.1%	–	0.116 µM [falling, full curve, poor fit]

Structure (SMILES)	cell number change	AC50 [1]	AC50 [2]
N#Cc1ccccc1Sc1ccccc1C(=O)OCc1nnc(-c2ccccc2)o1	-65.5%	29.1 µM [falling, single point]	29.1 µM [falling, single point]
CSc1nc(N)nc(SCC(=O)Nc2cccc(F)c2)c1C#N	-34.2%	20.6 µM [falling, partial curve]	25.9 µM [falling, partial curve, poor fit]
CCOC(=O)c1c(C)[nH]c(C(=O)Cn2c(=O)oc3ccccc32)c1C	–	4.61 µM [rising, single point]	–
CC(C)(C)c1ccc(OC2=CS(=O)(=O)c3ccccc32)cc1	-29.7%	29.1 µM [rising, single point]	–
O=S(=O)(Nc1nc2ccccc2nc1N1CCN(CCO)CC1)c1cc(F)ccc1F	9.16%	29.1 µM [rising, single point]	–
COc1ccc(Nc2nc(C)nc3sc4c(c23)CCC4)cc1O	–	0.58 µM [rising, single point]	0.651 µM [rising, single point]
Cc1ccc(-n2c(SCC(=O)Nc3cc(C)on3)nc3ccccc3c2=O)cc1	49.1%	0.0731 µM [rising, full curve]	0.082 µM [rising, full curve, poor fit]
CCN(CC)C(=O)CNC(=O)Cc1ccc(Cl)cc1	-4.72%	29.1 µM [falling, single point]	–
CCOC(=O)c1c(N)n(C2CC(C)(C)NC(C)(C)C2)c2nc3ccccc3nc12	11.4%	0.13 µM [falling, full curve, poor fit]	–
C=CCn1c(SCc2cccc3ccccc23)nnc1-c1cccnc1	-32.8%	29.1 µM [falling, single point]	23.1 µM [falling, single point]
COc1ccccc1-n1nnnc1SCc1ccccc1	–	6.51 µM [rising, single point]	6.51 µM [rising, single point]
O=C(CCn1cnnn1)N1CCCC(Nc2ccc(F)cc2)C1 (stereo not drawn)	–	29.1 µM [rising, single point]	–
O=c1cc(/C=C/c2ccccc2)oc2ccccc12	140%	9.2 µM [rising, partial curve]	6.51 µM [rising, full curve]
Cc1cc(C)nc(NS(=O)(=O)c2ccc(NC(=O)Cn3c(=O)oc4ccccc43)cc2)n1	-17.5%	6.51 µM [rising, full curve]	–
COc1cc2[nH]c(=S)n(CC3CCCO3)c(=O)c2cc1OC (stereo not drawn)	3.2%	0.411 µM [rising, full curve]	–
COCCn1c(SCc2ccccc2Cl)nc2c1c(=O)[nH]c(=O)n2C	-20.8%	–	–
O=C(NCC1CCCO1)c1csc2c1CCCC2 (stereo not drawn)	-41.1%	–	–
CN(C)CCN(Cc1ccco1)C(=O)c1cc2c(Cl)nc3ccccc3c2s1	–	1.64 µM [rising, partial curve]	–
Cc1ccc(NC(=O)COn2nnc3ccc(S(=O)(=O)N(C)C)cc32)cc1F	48.4%	2.91 µM [rising, partial curve]	2.59 µM [rising, full curve]
C1=C(c2ccccc2)Nc2ccccc2N=C1c1ccccc1	22.4%	2.91 µM [rising, full curve]	–

An excerpt of these results, in markdown.

| Structure (SMILES) | cell number change | AC50 [1] | AC50 [2] |
| --- | --- | --- | --- |
| COc1ccc(Nc2nc(C)nc3sc4c(c23)CCC4)cc1O | – | 0.58 µM [rising, single point] | 0.651 µM [rising, single point] |
| Cc1ccc(-n2c(SCC(=O)Nc3cc(C)on3)nc3ccccc3c2=O)cc1 | 49.1% | 0.0731 µM [rising, full curve] | 0.082 µM [rising, full curve, poor fit] |
| CCN(CC)C(=O)CNC(=O)Cc1ccc(Cl)cc1 | -4.72% | 29.1 µM [falling, single point] | – |

(more compounds)

Structure (SMILES)	cell number change	AC50 [1]	AC50 [2]
COc1ccc(N2CCN(C(=O)C3(S(=O)(=O)c4ccc(C)cc4)CC3)CC2)cc1	-10.5%	–	–
O=C(CN1C(=O)NC2(CCCCC2)C1=O)Nc1ccc(Cl)c(S(=O)(=O)N2CCOCC2)c1	-19.7%	29.1 µM [falling, single point]	–
Cn1cc(S(=O)(=O)N2CCC3(CC2)OCCO3)c(=O)n(C)c1=O	17.7%	0.00651 µM [rising, full curve, poor fit]	–
COc1cc(/C=C/C(=O)Nc2cccc(S(=O)(=O)NC3=NCCCCC3)c2)ccc1OCC#N	32.5%	–	29.1 µM [rising, single point]
COc1cc(/C=C2\C(=N)N3N=CSC3=NC2=O)ccc1OS(=O)(=O)c1ccccc1	–	6.51 µM [falling, partial curve]	–
CC(Sc1nc(-c2ccccc2)cc(=O)[nH]1)C(=O)O (stereo not drawn)	-12%	–	–
C=CCn1c(SCC(O)Cn2c3ccccc3c3ccccc32)nnc1-c1ccco1 (stereo not drawn)	-6.72%	2.59 µM [rising, single point]	4.11 µM [rising, single point]
Cc1cccc(OCC(=O)N(C)CCc2ccccn2)c1	–	18.4 µM [rising, partial curve]	–
COC(=O)CN1C(C)=Nc2ccc(Br)cc2C1c1ccccc1 (stereo not drawn)	–	2.31 µM [falling, partial curve]	–
CC(=O)N1CCN(S(=O)(=O)c2cccc(C(=O)Nc3ccccc3N3CCCCC3)c2)CC1	–	–	2.06 µM [rising, single point]
COc1ccc(N=C(NN)c2ccc3ccccc3n2)cc1	16.7%	6.51 µM [rising, partial curve]	–
C[C@@H]1CCC2[C@](C)(CO)[C@@H](O)CC[C@]2(C)[C@@]12CC[C@@](CO)(CC(=O)O)O2 (stereo partly drawn)	-22.4%	11.6 µM [falling, partial curve]	–
O=C(NC(=S)Nc1ccccc1N1CCN(C(=O)c2ccccc2)CC1)c1ccccc1F	-1.47%	–	–
COc1ccc(CC(=O)OCN2C(=O)c3ccccc3C2=O)cc1	5.67%	–	–
Cn1c(SCC(=O)N2CCCC2=O)nnc1-c1ccccc1F	-30.1%	–	0.326 µM [falling, partial curve]
CCOC(=O)CCc1c(C)c2ccc(OCc3cc([N+](=O)[O-])ccc3OC)c(C)c2oc1=O	–	0.116 µM [rising, full curve, poor fit]	0.058 µM [rising, full curve, poor fit]
Cc1cc(C)cc(OCC(=O)O/N=C(\N)c2ccccn2)c1	42.8%	6.51 µM [rising, single point]	3.26 µM [rising, partial curve]
O=C(COC(=O)Cc1ccccc1F)Nc1ccc2c(c1)OCCO2	34.5%	–	1.84 µM [rising, partial curve]
O=C1NN(c2ccc(Cl)c(Cl)c2)C(=O)/C1=C/c1cccc(OC(=O)c2cccs2)c1	–	18.4 µM [falling, partial curve]	–
Cc1nn(-c2ccccc2)c(Cl)c1/C=N/NC(=O)CNC(=O)c1ccccc1Cl	0.321%	5.17 µM [falling, partial curve]	–

Source: PubChem BioAssay AID2685 (National Center for Advancing Translational Sciences (NCATS), 2010)
